Here are results for two molecules from patent US20240423474A1, “SYSTEM AND METHOD FOR INTRAOPERATIVE LIFETIME IMAGING” (The General Hospital Corporation, priority 2021, published 2024).

Some results come without the dose or concentration used. Some values come without a unit; they compare only within their column.

Common to all, as to type: in vivo, human
The subject of one data set is head and neck cancers. As to the kind of experiment: ROC tumor versus normal classification in specimens of head and neck cancer patients. The following applies: 8 head and neck cancer patients, FIG. 17B.
In the next data set the test system is sarcoma tumors. Description: ROC tumor versus normal classification in specimens of sarcoma patients. Conditions: 10 sarcoma patients, FIG. 17A.
Data set [1] has as its system OSCC tumors. Description: Confocal FLIM of OSCC tissue sections from patients injected with panitumumab-IRDye800CW.
The test system of data set [2] is OSCC tumors. As to the kind of experiment: Widefield TD and spectral imaging of OSCC tissue block, ROC tumor/normal classification. Conditions: FIG. 14K.

As for `CC1(C)C(/C=C/C=C/C=C/C=C2\N(CCCCS(=O)(=O)O)c3ccc4ccccc4c3C2(C)C)=[N+](CCCCS(=O)(=O)[O-])c2ccc3ccccc3c21` [ICG, indocyanine green], in the data set with head and neck cancers, the “accuracy (AUC), FLT based tumor vs normal classification” value turned out to be 0.96 and the “accuracy (AUC), intensity based tumor vs normal classification” value is 0.61. In addition, in the data set on sarcoma tumors, the “accuracy (AUC), FLT based tumor versus normal classification” value is 0.96 and the “accuracy (AUC), intensity based tumor versus normal classification” value came out at 0.56.
As for “panitumumab-IRDye800CW: conjugate of the FDA approved therapeutic antibody for the epidermal growth factor receptor (EGFR), panitumumab, with IRdye800CW, an NIR dye”, in the data set on OSCC tumors [1] (FIG. 12A, OSCC specimen, injected 48 hours prior to surgery), the “FLT in tumor front” value is 0.9-1 ns. Also, in the data set on OSCC tumors [1] (FIG. 12A, normal tissue), the FLT in muscle stood at 0.5 ns and the “FLT in salivary gland” value is given as 0.7 ns. Besides, the “muscle FLT” value in the data set on OSCC tumors [1] (FIG. 12C) was 0.5 ns. In addition, the “average FLT of OSCC cell clusters” value in the data set with OSCC tumors [1] (FIG. 12C, three cell clusters) is recorded as 0.96 ns. Also, in the data set on OSCC tumors [1] (FIG. 13C, high EGFR expressing), the “average FLT in representative tumor ROI” value turned out to be 0.88 ns. For the same molecule, the “average FLT in representative muscle ROI” value in the data set on OSCC tumors [1] (FIG. 13C, low EGFR expressing) worked out at 0.4 ns. Moreover, the “average FLT in representative salivary gland ROI” value with OSCC tumors [1] (FIG. 13C, moderate EGFR expressing) is 0.5 ns. Also, the “AUC, spectral unmixing classification” value in the data set with OSCC tumors [2] came out at 0.58. Further, the “AUC, intensity-based classification” value in the data set with OSCC tumors [2] (widefield) was found to be 0.32.
